No constants are given. Whether binding was seen depends on the method and setting. For some assays here: Binding seen in cells or lysates may run through a third protein. Some entries that bind do so weakly or less than the wild type. Tags and fused reporters may be left off the sequences shown.
T1: Arabidopsis G-protein β subunit AGB1, Gal4 DNA-binding domain fusion (pGBKT7-AGB1) (Arabidopsis thaliana) (UniProt P49177)
T1 sequence: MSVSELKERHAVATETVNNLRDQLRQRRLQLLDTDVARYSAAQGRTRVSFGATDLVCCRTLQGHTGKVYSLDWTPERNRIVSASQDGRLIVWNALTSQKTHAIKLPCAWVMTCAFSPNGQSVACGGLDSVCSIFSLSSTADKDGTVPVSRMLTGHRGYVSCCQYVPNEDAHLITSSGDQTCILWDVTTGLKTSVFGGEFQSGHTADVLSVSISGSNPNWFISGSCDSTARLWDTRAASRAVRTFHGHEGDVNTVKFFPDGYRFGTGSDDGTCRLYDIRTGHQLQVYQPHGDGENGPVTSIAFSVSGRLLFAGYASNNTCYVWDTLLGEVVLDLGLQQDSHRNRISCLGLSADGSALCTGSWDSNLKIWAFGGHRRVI

T2: nYFP-fused AGB1 (Arabidopsis thaliana) (UniProt P49177)
T2 sequence: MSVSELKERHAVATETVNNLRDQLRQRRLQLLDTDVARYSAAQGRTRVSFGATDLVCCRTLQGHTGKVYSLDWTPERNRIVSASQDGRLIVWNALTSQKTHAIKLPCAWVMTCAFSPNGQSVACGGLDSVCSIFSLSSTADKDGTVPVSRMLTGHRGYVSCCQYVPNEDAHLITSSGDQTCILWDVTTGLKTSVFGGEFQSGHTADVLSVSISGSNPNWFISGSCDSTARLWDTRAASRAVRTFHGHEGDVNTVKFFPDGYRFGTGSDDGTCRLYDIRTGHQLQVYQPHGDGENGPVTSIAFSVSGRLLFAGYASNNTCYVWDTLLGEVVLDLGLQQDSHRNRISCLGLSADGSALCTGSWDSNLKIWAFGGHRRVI


How the values were obtained:
[1] = biological target: T1, Arabidopsis G-protein β subunit AGB1, Gal4 DNA-binding domain fusion (pGBKT7-AGB1) (Arabidopsis thaliana); test: two-hybrid; pGBK-AGB1 and pGAD-AP-3µ co-introduced into S. cerevisiae AH109; growth on SD/–Leu/–Trp/–His (TDO), reporter HIS3; at least four colonies
[2] = biological target: T2, nYFP-fused AGB1 (Arabidopsis thaliana); test: split reporter; bimolecular fluorescence complementation of nYFP and cYFP fusions co-expressed in onion epidermal cells by particle bombardment

binding [1]	binding [2]	Binder
binds		AP-3µ, Gal4 activation domain fusion (pGADT7-Rec-AP-3µ, full-length ORF) (protein, UniProt F4I562 1-415) MLQCIFLISDSGEVMLEKQLTGHRVDRSICAWFWDQYISQGDSFKALPVIASPTHYLFQIVRDGITFLACSQVEMPPLMAIEFLCRVADVLSEYLGGLNEDLIKDNFIIVYELLDEMIDNGFPLTTEPSILKEMIAPPNLVSKMLSVVTGNASNVSDTLPSGAGSCVPWRPTDPKYSSNEVYVDLVEEMDAIVNRDGELVKCEIYGEVQMNSQLTGFPDLTLSFANPSILEDMRFHPCVRYRPWESHQVLSFVPPDGEFKLMSYRVKKLKNTPVYVKPQITSDSGTCRISVLVGIRSDPGKTIESITLSFQLPHCVSSADLSSNHGTVTILSNKTCTWTIGRIPKDKTPCLSGTLALEPGLERLHVFPTFKLGFKIMGIALSGLRIEKLDLQTIPPRLYKGFRAQTRAGEFDVRL
	binds	cYFP-fused AP-3µ (protein, UniProt F4I562 1-415) MLQCIFLISDSGEVMLEKQLTGHRVDRSICAWFWDQYISQGDSFKALPVIASPTHYLFQIVRDGITFLACSQVEMPPLMAIEFLCRVADVLSEYLGGLNEDLIKDNFIIVYELLDEMIDNGFPLTTEPSILKEMIAPPNLVSKMLSVVTGNASNVSDTLPSGAGSCVPWRPTDPKYSSNEVYVDLVEEMDAIVNRDGELVKCEIYGEVQMNSQLTGFPDLTLSFANPSILEDMRFHPCVRYRPWESHQVLSFVPPDGEFKLMSYRVKKLKNTPVYVKPQITSDSGTCRISVLVGIRSDPGKTIESITLSFQLPHCVSSADLSSNHGTVTILSNKTCTWTIGRIPKDKTPCLSGTLALEPGLERLHVFPTFKLGFKIMGIALSGLRIEKLDLQTIPPRLYKGFRAQTRAGEFDVRL

Source: paper PMC3871816, “The Arabidopsis adaptor protein AP-3µ interacts with the G-protein β subunit AGB1 and is involved in abscisic acid regulation of germination and post-germination development” (Journal of Experimental Botany, 2013)
